PubChem BioAssay AID652272, Drosophila RNAi Screening Center, 2013
In all, the deposit lists about 21,000 reagents; below is a random part of those that have a named target and a result. Of all reagents, 503 (2.4%) were called active. 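Raw plate light values, not normalised; calls rest on replicate z-scores that were not deposited; hits include reporter decreases as well as increases.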 A plus sign joins genes that one reagent is predicted to hit. Not given: the amount of reagent, the time to read-out.

- Assay: 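Genes whose knock-down decreases or increases Hedgehog reporter output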 (primary screen)
- Cell system: Drosophila clone 8 (Cl8) cells
- Knock-down reagent: long dsRNA against Drosophila genes
- Measured: 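Firefly light from a Hedgehog-responsive ptc promoter reporter and Renilla reference light, both read on a plate reader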
- Reading the numbers: firefly Hh reporter signal: higher = more ptc reporter light; Renilla reference signal: higher = more Renilla control light
- Active means: 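Hit when the z-score averaged over two replicates is under -2 or over +3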
- Calls: active = hit: reporter lowered or raised; inactive = not a hit

target	dsRNA	firefly Hh reporter signal, replicate 1	firefly Hh reporter signal, replicate 2	firefly Hh reporter signal, replicate 3	Renilla reference signal, replicate 1	Renilla reference signal, replicate 2	Call
Hrb98DE	DRSC16709	1.27e5	71812		3037	2123	inactive
CG17300	DRSC10260	52843	41029	45648	3733	3122	inactive
Idh3g	DRSC15699	5.57e5	1.28e5		27344	3707	inactive
CG31446	DRSC13111	1137	1.96e5		242	4664	inactive
sv	DRSC17221	54231	1.84e5		1829	7556	inactive
CG11905	DRSC09863	1.19e5	91159		4906	3650	inactive
CG18641	DRSC00527	94768	1.31e5		2506	2857	inactive
Snmp2	DRSC10228	68149	1.08e5		6529	5969	inactive
Snmp2	DRSC10843	54137	69920		4283	4237	inactive
CG15046	DRSC19622	86182	3.18e5		1184	13222	inactive
CG9922	DRSC16579	1.14e5	1.44e5		3069	3405	inactive
GckIII	DRSC15729	64131	66914		1338	2016	inactive
CG12481	DRSC19461	48871	1.67e5		1344	6576	inactive
CG14628	DRSC18626	92800	2.45e5		2471	10000	inactive
Capa	DRSC15058	1.33e5	1.03e5		3280	3088	inactive
Dhrs4	DRSC09773	1.13e5	87264		4218	3084	inactive
mst	DRSC20582	60038	4.00e5		1237	14973	inactive
Gel	DRSC12350	1.41e5	85522		6022	3848	inactive
CG11356	DRSC19401	67512	2.26e5		1690	9264	inactive
Spn38F	DRSC03616	1.94e5	85805		4512	7388	inactive
Tmem63	DRSC06063	76394	47560		1649	4284	inactive
Sec8	DRSC12300	1.43e5	1.27e5		5144	4762	inactive
hgo	DRSC03544	1.48e5	84384		3811	7445	inactive
Map60	DRSC07464	97184	91152		4109	3714	inactive
CtBP	DRSC16617	65194	43979		2921	2582	inactive
Cyp28d2	DRSC03299	1.09e5	49856		2826	4976	inactive
kug	DRSC10911	1.17e5	55168		4685	2532	inactive
MrgBP	DRSC06417	85608	42243		2192	4135	inactive
CG12395	DRSC19453	82055	2.26e5		2096	9144	inactive
CG4951	DRSC15682	83696	97910		1478	2343	inactive
CG8569	DRSC07214	62567	47665		3139	1991	inactive
eIF5B	DRSC08429	65302	52305		2596	4145	inactive
eIF5B	DRSC08710	40609	33587		2569	3034	inactive
Roc1a	DRSC18483	83904	2.35e5		2407	6340	inactive
brn	DRSC18746	1.13e5	1.16e5		2560	4041	inactive
Obp85a	DRSC14362	47789	98763		1402	2905	inactive
CG4752	DRSC04486	1.13e5	85504		1222	7763	inactive
LpR2	DRSC13726	41767	2.64e5		11808	6311	inactive
LpR2	DRSC13728	43116	1.74e5		11216	3819	inactive
LpR2	DRSC15655	70787	69105		1810	2216	inactive
LpR2	DRSC15658	3.83e5	1.14e5		18562	3179	inactive
CG4704	DRSC15628	6.63e5	96723		30326	2490	inactive
ETH + asRNA:CR43257	DRSC04612	1.16e5	44725		2737	2071	inactive
CG13159	DRSC06283	1.41e5	1.25e5		3426	7010	inactive
CG18268 + CG3014	DRSC15319	86162	97538		3637	2890	inactive
Eig71Ek	DRSC11158	1.27e5			7168	3672	inactive
CBP	DRSC17746	99143	93641		2133	2108	inactive
Cyp313a1	DRSC16624	70279	1.16e5		1946	3553	inactive
Teh1	DRSC14544	1.33e5	1.81e5		3654	4871	inactive
l(3)04053	DRSC11640	2.10e5	4.41e5	1.42e5	7424	25940	inactive
TwdlQ	DRSC14745	64237	53689		1760	1424	inactive
lectin-24Db	DRSC00553	1.09e5	1.18e5		4152	4992	inactive
CG13561	DRSC04199	1.01e5	79684		2598	7581	inactive
NaPi-III	DRSC10893	47081	79251		2307	3100	inactive
NaPi-III	DRSC10894	32384	22320	15584	2492	1429	inactive
CG4806	DRSC04491	69910	34935		2098	3942	inactive
CG45002	DRSC20144	89818	2.98e5		2867	12816	inactive
Or94a	DRSC16772	4.67e5	77898		22800	2108	inactive
Pgd	DRSC18697	1.22e5	67308		2805	2261	inactive
kn	DRSC05505	7.34e5	1.93e5	1.34e5	5316	5492	inactive
kn	DRSC05507	1.61e5	3.62e5		4517	13900	inactive
kn	DRSC06196	56276	49219		1648	4298	inactive
kn	DRSC07637	65213	45718		1568	3746	inactive
JTBR	DRSC08667	80224	40530		2774	2832	inactive
Pp1-87B	DRSC16794	75648	63064		3717	3088	inactive
ATPsynCF6	DRSC14092	4.88e5	93027		21029	3037	inactive
CG15429	DRSC00444	88868	53122		1187	5290	inactive
CR32745	DRSC17442	4.28e5	1.51e5		23578	3008	inactive
blw	DRSC04675	53616	53106		1108	4832	inactive
Mad1	DRSC07561	94240	83728		4759	3109	inactive
DNAlig3	DRSC15201	96352	1.60e5		3168	3872	inactive
CG7702	DRSC16293	1.13e5	93569		3620	3589	inactive
CG13116	DRSC02214	1.74e5	6.11e5	1.46e5	4333	34717	inactive

No new results follow: entries from further up.
target	dsRNA	firefly Hh reporter signal, replicate 1	firefly Hh reporter signal, replicate 2	firefly Hh reporter signal, replicate 3	Renilla reference signal, replicate 1	Renilla reference signal, replicate 2	Call
eIF5B	DRSC08429	65302	52305		2596	4145	inactive
eIF5B	DRSC08710	40609	33587		2569	3034	inactive
Roc1a	DRSC18483	83904	2.35e5		2407	6340	inactive
brn	DRSC18746	1.13e5	1.16e5		2560	4041	inactive
Obp85a	DRSC14362	47789	98763		1402	2905	inactive
CG4752	DRSC04486	1.13e5	85504		1222	7763	inactive
LpR2	DRSC13726	41767	2.64e5		11808	6311	inactive
LpR2	DRSC13728	43116	1.74e5		11216	3819	inactive
